In article PMC4330346, “Function of the N-terminal segment of the RecA-dependent nuclease Ref” (Nucleic Acids Research, 2015):
Weaker means in comparison with the reference protein, sequence or condition of that experiment. Where a protein sequence is shown, tags need not be part of it.

Tests used:
[1] = target: T1, phiW39 deltaN59 Ref R86T,A93T,N107E,A115S (bacteriophage phiW39) (UniProt P35926); assay: fluorescence polarization; conditions: 25 mM Tris-acetate pH 8.5, 3 mM potassium glutamate, 15 mM magnesium acetate, 5% w/v glycerol, 2 nM DNA, Ref 0.5-10000 nM, 15 min at room temperature, read at 25 C; recombinant protein; label: 5' 6-FAM on strand 1
T1 sequence (looked up, limits assumed): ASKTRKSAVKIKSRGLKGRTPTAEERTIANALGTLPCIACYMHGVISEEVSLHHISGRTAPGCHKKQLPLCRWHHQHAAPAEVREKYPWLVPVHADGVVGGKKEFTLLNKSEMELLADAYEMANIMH

[2] = target: T2, phiW39 deltaN66 Ref R86T,A93T,N107E,A115S (bacteriophage phiW39) (UniProt P35926); assay: fluorescence polarization; conditions: 25 mM Tris-acetate pH 8.5, 3 mM potassium glutamate, 15 mM magnesium acetate, 5% w/v glycerol, 2 nM DNA, Ref 0.5-10000 nM, 15 min at room temperature, read at 25 C, recombinant protein
T2 sequence (looked up, limits assumed): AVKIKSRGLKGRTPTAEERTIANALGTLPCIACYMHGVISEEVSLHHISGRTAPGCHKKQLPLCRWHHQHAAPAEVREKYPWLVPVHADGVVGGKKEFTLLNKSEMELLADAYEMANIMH

| Sequence | binding result [1] | binding result ([2]; label: 5' 6-FAM on strand 1) | binding result ([2]; saturation not attainable, label: 5' 6-FAM, single-stranded DNA) |
| --- | --- | --- | --- |
| CAGAAGTAAGTTGGCCGCAGTGTTATCACTCATGGTTATGGCAGCACTGCATAATTCTCTTACTGTCATGC (double strand) [AJM25/AJG52 71 bp dsDNA] | binds more weakly | binds more weakly | – |
| CAGAAGTAAGTTGGCCGCAGTGTTATCACTCATGGTTATGGCAGCACTGCATAATTCTCTTACTGTCATGC [AJM25 71mer ssDNA] | – | – | binds more weakly |
